Measured values published in paper PMC4215638, “J-147 a Novel Hydrazide Lead Compound to Treat Neurodegeneration: CeeTox™ Safety and Genotoxicity Analysis” (Journal of neurology & neurophysiology, 2013).

System: rat hepatoma (H4IIE) cell line
Test: CTox ranking (CeeTox proprietary algorithm from TC50 values)
Assay type: cell-based
Details: CTox 90 μM versus neurotrophism EC50 0.025 μM

In the case of `COc1cccc(/C=N/N(C(=O)C(F)(F)F)c2ccc(C)cc2C)c1` [J-147, (E)-N-(2,4-Dimethylphenyl)-2,2,2-trifluoro-N′-(3-methoxybenzylidene) acetohydrazide], the neurotrophism/toxicity ratio is reported as 3600.
